The campaign covered roughly 580,000 compounds. About 6,100 (1.1%) were called active. The shares of active, inactive and inconclusive entries below differ from those in the screen. Calls follow the shape of the dose curve; as a rule, active = well fitted inhibition curve with a large enough effect; inconclusive = small, poorly fitted or top-dose-only effect, or another doubt; inactive = no such curve, though single readings can be large or run the other way. Where the call is inconclusive, the potency comes from a doubtful curve fit.
Biological target: Polyunsaturated fatty acid lipoxygenase ALOX12 (Homo sapiens) (UniProt P18054)
Test: Primary qHTS assay for inhibitors of human arachidonate 12S-lipoxygenase (ALOX12): Round 2
Conditions: purified 12hLO, xylenol orange hydroperoxide absorbance; series mostly up to 108 µM
Summary of the method: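 Hydroperoxide product was detected by ferrous iron/xylenol orange as the 573 to 405 nm absorbance ratio. Arachidonic acid at 40 uM (final) was turned over for 30 min at room temperature by 150 nM human 12hLO, pH 7.0 Hepes buffer, after 15 min compound preincubation.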
Potency is read from the fitted curve at half-maximal effect.

Protein sequences, listed by entry. Tags and fused reporters are not part of them. Lines headed by an entry give the natural chain unless they say otherwise; changes in a name come on top.
UniProt P18054: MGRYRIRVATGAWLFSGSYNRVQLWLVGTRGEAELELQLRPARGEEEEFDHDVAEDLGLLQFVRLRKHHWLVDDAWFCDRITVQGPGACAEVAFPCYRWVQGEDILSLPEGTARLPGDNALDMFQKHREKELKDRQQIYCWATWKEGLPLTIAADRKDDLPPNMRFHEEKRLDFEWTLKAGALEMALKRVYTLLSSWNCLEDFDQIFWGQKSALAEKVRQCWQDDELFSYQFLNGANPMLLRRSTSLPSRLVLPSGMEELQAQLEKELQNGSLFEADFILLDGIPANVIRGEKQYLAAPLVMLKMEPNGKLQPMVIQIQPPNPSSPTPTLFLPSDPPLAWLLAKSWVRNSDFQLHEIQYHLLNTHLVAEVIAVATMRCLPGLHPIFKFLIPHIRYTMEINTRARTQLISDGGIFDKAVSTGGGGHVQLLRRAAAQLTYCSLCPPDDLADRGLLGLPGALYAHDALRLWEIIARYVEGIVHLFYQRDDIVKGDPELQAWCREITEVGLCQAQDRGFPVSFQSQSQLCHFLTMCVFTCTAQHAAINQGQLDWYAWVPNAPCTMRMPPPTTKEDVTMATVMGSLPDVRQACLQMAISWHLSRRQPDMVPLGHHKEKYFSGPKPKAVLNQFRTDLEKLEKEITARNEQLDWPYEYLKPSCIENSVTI

Question: Which Potency does the source give for `Oc1ccc([S+]2CCCC2)c2ccccc12` here?
Answer: inconclusive: 70.8 µM [inhibitor, partial curve, poor fit]

Question: How did the Potency turn out when `NC(=O)c1cc(Cl)ccc1OCC(=O)NC1CC1` was run?
Answer: inconclusive: 112 µM [inhibitor, partial curve, poor fit]

Question: Which Potency does the source give for `CNc1oc(-c2ccccc2Cl)nc1C#N` here?
Answer: inconclusive: 50.1 µM [inhibitor, partial curve, poor fit]

Question: With `CCC(=O)Nc1nc(C)c(-c2csc(Nc3ccc(OC)cc3)n2)s1` as the molecule, how does the Potency read?
Answer: inconclusive: 20 µM [inhibitor, partial curve, poor fit]

Question: For `O=C(Nc1ccccc1F)NC1CCCc2ccccc21` (centres undefined), which Potency is on record?
Answer: inconclusive: 112 µM [inhibitor, single point]

Question: How did the Potency turn out when `CCCCCCNC(=O)c1ccc(Nc2ccc(-c3ccc(C)cc3)nn2)cc1` was run?
Answer: inactive

Question: For `CCOC(=O)c1cccc(NC(=O)c2cc3sccc3n2Cc2ccc(Cl)cc2)c1`, which Potency is on record?
Answer: inactive

Question: How did the Potency turn out when `OCCNc1nc2ccccc2n1CCN1CCCCC1` was run?
Answer: inconclusive: 35.5 µM [inhibitor, partial curve, poor fit]

Question: How did the Potency turn out when `CC[C@H]1CN2CCc3cc(OC)c(OC)cc3[C@@H]2C[C@@H]1C[C@H]1NCCc2cc(OC)c(OC)cc21` was run?
Answer: inconclusive: 126 µM [inhibitor, single point]

Question: How did the Potency turn out when `CC(NC(=O)C1CCOCC1)C(=O)O` (centres undefined) was run?
Answer: inconclusive: 31.6 µM [inhibitor, partial curve, poor fit]

Question: `Cc1cc(Cl)ccc1C(=O)N1Cc2cnn(Cc3ccc(F)cc3)c2C1` was tested. Which Potency did it give?
Answer: inactive

Question: Which Potency does the source give for `CCC(Oc1ccccc1)C(=O)Nc1ccc(S(=O)(=O)NCC(=O)c2ccccc2)cc1` (centres undefined) here?
Answer: inconclusive: 1.12 µM [inhibitor, full curve, poor fit]

Question: With `CCN(CC)C(=O)CSc1nc2ccc(NC(=O)c3ccc(C)cc3)cc2s1` as the molecule, how does the Potency read?
Answer: inconclusive: 5.62 µM [inhibitor, full curve, poor fit]

Question: How did the Potency turn out when `Cc1cc(C)n(-c2cc(N3CCN(C(=O)c4ccc(C(C)(C)C)cc4)CC3)ccc2[N+](=O)[O-])n1` was run?
Answer: inactive

Question: With `COc1cccc2cc(-c3nnc(SCC(=O)Nc4cc(C)ccc4C)n3N)oc12` as the molecule, how does the Potency read?
Answer: inactive

Question: `O=C(Cn1c(=O)ccc2cc(S(=O)(=O)N3CCCC3)ccc21)NCc1ccc(Cl)cc1` was tested. Which Potency did it give?
Answer: inactive

Question: With `CC(C)CCNC(=O)C1(C)Cn2nc(C(=O)NCCN3CCCCCC3)cc2C(=O)N1C` (centres undefined) as the molecule, how does the Potency read?
Answer: inconclusive: 44.7 µM [inhibitor, partial curve, poor fit]

Question: Which Potency does the source give for `CCOC(=O)c1cc(S(=O)(=O)NCc2ccccc2)[nH]n1` here?
Answer: inconclusive: 56.2 µM [inhibitor, partial curve]

Question: For `CC(C)c1cccc(-c2ccc3c(c2)S(=O)(=O)c2cccc(C(=O)NC4CCCC4)c2C3=O)c1`, which Potency is on record?
Answer: inconclusive: 17.8 µM [inhibitor, partial curve, poor fit]

Source: PubChem BioAssay AID1671190 (National Center for Advancing Translational Sciences (NCATS), 2021)
